In assay [1] the target is T1, cynomolgus monkey CXCL2 (cynomolgus monkey) (UniProt Q0EAC2).
T1 sequence: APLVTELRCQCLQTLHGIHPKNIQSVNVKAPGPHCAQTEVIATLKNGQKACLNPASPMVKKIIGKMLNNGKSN
In words: Fab/antigen complex purified by size exclusion chromatography and crystallized.

For assay [2], the target named is T2, cynomolgus monkey CXCL7 (cynomolgus monkey) (UniProt G7P5K7).
T2 sequence: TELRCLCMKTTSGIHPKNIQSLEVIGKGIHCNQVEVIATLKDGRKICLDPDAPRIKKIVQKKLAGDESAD
The description is as above.

Results are given in words; binding and its absence hold for the method and conditions named. Some entries that bind do so weakly or less than the wild type.

One molecule from patent publication US20180362631A1 can be followed below.

B1: Fab of Antibody 1 (Fab, V domains shown)
VH: QVQLVQSGAEVKKPGASVKVSCKASGYEFTSYWIHWVRQAPGQGLEWMGNISPNSGSANYNEKFKSRVTMTRDTSTSTVYMELSSLRSEDTAVYYCAREGPYSYYPSREYYGSDLWGQGTLVTVSS
VL: EIVLTQSPATLSLSPGERATLSCRASQSISNNLHWYQQKPGQAPRLLIYYTSRSVSGIPARFSGSGSGTDFTLTISSLEPEDFAVYYCGQNNEWPEVFGGGTKVEIK
As for B1, the binding entry in assay [1] and in assay [2] was “binds” throughout.
